Measured data: PubChem BioAssay AID1259405 (NCATS, 2018)

Assay: 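Mouse-designed siRNAs used to find CHO productivity engineering targets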 (primary screen)
Cells: Chinese hamster CHO-K1 ovary cells with stable secreted eGFP expression
Reagent: single siRNA against mouse genes, 0.8 pmol siRNA per well (2 µl of 400 nM stock)
Timing: 3 days
Read-out: 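Per-well intracellular GFP measured by laser scanning cytometry, plus viability from ATP luminescence, each relative to plate median of non-targeting control wells, in %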
Scale: GFP, % of control: higher = more GFP per well, higher productivity; viability (ATP), % of control: higher = more viable cells (more ATP)
Active means: 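Called active when intracellular GFP, relative to negative control, is at or above 120%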
In all, the deposit lists about 50,000 reagents; shown is an unselected part. About 4,000 of them (8%) count as active. 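Mouse siRNA library applied to hamster cells; one well for each siRNA.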 Unmarked entries are inactive. The numbers tell different reagents against one gene apart.

gene	siRNA no.	GFP, % of control	viability (ATP), % of control
Crym	1	42.8	49.4
Crym	2	31.8	43.3
Crym	3	43.5	46.3
Clns1a	1	65.6	58.4
Clns1a	2	36.2	26.4
Clns1a	3	81	91.6
Pus7	1	67.4	41.1
Pus7	2	98.4	76
Pus7	3	60.3	32.9
Ifna2	1	71.5	53.7
Ifna2	2	97.4	70.5
Ifna2	3	78.8	46.7
Reep1	1	72.3	43.4
Reep1	2	78.5	76.5
Reep1	3	74.6	62.1
Ccn5	1	61.2	77
Ccn5	2	117	92.2
Ccn5	3	178 (active)	130
Spaar	1	74	84.7
Spaar	2	107	89.8
Spaar	3	102	117
Catsperg2	1	135 (active)	129
Catsperg2	2	181 (active)	122
Catsperg2	3	64.9	60.6
Dennd5a	1	92.2	72.2
Dennd5a	2	109	73
Dennd5a	3	65.3	81.9
Rtn4	1	103	68.2
Rtn4	2	75.3	97.6
Rtn4	3	31.3	47.5
Chac1	1	91.9	92
Chac1	2	56.6	60.1
Chac1	3	63.9	81.5
Elk3	1	44.1	36.3
Elk3	2	72.2	75.2
Elk3	3	116	102
Ntrk3	1	27.5	26.9
Ntrk3	2	82.6	50.3
Ntrk3	3	109	72.4
H2-T23	1	66.2	92.2
H2-T23	2	70.3	68.2
H2-T23	3	59.3	64.7
Lig1	1	96.1	101
Lig1	2	77.4	84.2
Lig1	3	65.9	97.5
Or7g20	1	59.5	78.1
Or7g20	2	101	65.9
Or7g20	3	68.3	77.2
Kcnt1	1	41.9	51.5
Kcnt1	2	62.5	100
Kcnt1	3	75	90.5
1700084P21Rik	1	90.3	83.8
1700084P21Rik	2	137 (active)	113
1700084P21Rik	3	71.3	63.8
Asic4	1	89.1	127
Asic4	2	36.7	60.7
Asic4	3	73.5	84

4 neighbouring entries already listed:
gene	siRNA no.	GFP, % of control	viability (ATP), % of control
Crym	3	43.5	46.3
Clns1a	1	65.6	58.4
Clns1a	2	36.2	26.4
Clns1a	3	81	91.6
